Experimental data reported in PubChem BioAssay (Tox21).
These results got no clear call from the source, so the numbers are uncertain. Unless noted, calls come from the whole dose curve; as a rule, active = well fitted curve in the direction sought with a large enough effect in the repeat runs; inconclusive = weak or mixed curves; inactive = no such curve, though single readings can be large; an effect the other way counts as inactive or inconclusive.

Sequences of proteins named here, by UniProt entry; tags and fusion partners are left off.
UniProt P04150, whole entry: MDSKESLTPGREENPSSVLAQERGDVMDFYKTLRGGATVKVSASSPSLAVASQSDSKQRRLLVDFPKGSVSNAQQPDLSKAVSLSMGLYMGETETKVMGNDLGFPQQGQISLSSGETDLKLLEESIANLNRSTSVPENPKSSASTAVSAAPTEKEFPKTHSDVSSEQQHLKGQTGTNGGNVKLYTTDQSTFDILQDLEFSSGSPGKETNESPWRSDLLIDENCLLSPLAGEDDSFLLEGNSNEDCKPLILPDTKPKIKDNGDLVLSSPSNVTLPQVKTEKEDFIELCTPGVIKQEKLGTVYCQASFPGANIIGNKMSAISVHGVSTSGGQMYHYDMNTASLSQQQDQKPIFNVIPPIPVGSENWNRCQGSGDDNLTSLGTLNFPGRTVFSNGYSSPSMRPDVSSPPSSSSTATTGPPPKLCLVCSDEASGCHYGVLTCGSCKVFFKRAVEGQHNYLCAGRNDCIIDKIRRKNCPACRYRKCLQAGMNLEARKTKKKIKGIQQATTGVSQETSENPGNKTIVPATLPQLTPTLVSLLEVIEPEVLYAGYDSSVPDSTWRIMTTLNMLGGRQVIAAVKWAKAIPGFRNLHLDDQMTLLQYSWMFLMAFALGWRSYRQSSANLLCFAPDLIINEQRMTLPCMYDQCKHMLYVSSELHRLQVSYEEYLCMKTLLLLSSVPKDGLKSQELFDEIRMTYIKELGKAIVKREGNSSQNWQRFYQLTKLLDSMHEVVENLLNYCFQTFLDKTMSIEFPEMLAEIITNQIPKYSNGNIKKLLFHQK
UniProt P10275, whole entry: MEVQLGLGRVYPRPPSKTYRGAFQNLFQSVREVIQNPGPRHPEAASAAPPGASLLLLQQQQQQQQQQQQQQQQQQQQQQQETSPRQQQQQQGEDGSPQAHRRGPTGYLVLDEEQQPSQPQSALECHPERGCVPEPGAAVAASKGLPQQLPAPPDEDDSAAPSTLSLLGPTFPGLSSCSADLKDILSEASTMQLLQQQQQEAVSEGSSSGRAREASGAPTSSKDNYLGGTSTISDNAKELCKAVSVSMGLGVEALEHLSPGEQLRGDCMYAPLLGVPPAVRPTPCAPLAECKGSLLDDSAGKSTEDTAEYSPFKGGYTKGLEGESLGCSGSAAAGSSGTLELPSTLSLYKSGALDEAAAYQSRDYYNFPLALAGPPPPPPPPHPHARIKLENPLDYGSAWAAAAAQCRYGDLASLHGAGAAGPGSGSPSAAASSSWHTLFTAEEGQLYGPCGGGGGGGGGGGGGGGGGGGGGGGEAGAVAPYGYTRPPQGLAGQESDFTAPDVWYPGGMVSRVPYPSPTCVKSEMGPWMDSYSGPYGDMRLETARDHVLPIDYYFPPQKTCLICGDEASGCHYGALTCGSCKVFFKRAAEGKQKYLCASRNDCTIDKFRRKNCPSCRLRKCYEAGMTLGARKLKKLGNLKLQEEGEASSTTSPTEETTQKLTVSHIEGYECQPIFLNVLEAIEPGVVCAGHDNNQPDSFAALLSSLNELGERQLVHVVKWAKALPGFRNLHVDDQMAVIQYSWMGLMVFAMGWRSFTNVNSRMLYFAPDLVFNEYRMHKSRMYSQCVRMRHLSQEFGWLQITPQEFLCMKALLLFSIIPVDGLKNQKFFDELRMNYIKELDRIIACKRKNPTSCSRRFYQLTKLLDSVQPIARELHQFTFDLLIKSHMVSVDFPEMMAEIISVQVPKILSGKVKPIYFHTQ
UniProt P37231, whole entry: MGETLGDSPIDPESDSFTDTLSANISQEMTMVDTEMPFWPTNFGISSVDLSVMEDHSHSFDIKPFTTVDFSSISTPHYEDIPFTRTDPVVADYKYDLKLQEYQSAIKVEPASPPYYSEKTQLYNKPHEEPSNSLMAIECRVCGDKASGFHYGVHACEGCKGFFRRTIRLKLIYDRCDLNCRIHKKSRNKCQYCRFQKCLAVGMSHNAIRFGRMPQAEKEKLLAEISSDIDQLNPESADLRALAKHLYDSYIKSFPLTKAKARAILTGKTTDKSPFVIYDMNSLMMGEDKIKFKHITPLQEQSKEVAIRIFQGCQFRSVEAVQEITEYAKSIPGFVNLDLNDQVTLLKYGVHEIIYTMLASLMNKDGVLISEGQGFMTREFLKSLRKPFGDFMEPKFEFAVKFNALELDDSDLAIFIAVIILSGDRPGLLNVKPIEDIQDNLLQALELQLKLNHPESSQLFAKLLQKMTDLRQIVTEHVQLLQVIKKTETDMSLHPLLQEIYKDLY
UniProt P11473, whole entry: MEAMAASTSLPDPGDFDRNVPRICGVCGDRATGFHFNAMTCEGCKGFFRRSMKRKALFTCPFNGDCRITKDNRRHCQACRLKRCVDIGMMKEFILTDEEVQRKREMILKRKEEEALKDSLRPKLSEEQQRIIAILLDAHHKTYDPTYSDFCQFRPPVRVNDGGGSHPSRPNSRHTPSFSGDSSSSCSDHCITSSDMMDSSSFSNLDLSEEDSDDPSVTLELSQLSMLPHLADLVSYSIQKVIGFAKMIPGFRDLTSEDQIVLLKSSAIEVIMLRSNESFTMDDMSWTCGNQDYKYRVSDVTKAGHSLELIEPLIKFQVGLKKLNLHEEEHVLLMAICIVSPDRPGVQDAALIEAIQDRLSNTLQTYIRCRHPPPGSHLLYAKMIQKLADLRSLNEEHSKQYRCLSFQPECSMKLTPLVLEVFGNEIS

Columns and labels:
[1] = qHTS assay for small molecule agonists of the p53 signaling pathway (AID 651631; calls by dose curve; note: potency is the fitted concentration of half-maximal effect; nearly all actives have a fitted effect of over 15% in size); details: HCT-116 p53RE-bla reporter, beta-lactamase FRET ratio, 16 h
Procedure, shortened: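 Testing took place in human colorectal HCT-116 cells with stable p53RE-driven beta-lactamase. After 16 h of compound exposure at 37 °C, a FRET substrate was added and fluorescence recorded 2 h later.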

[2] = biological target: Glucocorticoid receptor (Homo sapiens) (UniProt P04150); test: qHTS assay to identify small molecule antagonists of the glucocorticoid receptor (GR) signaling pathway (AID 720692; active = well fitted inhibition curve with a large enough effect in the signal ratio in the repeat runs, not every such curve was filed as active; inconclusive = weak or mixed curves, or effect the other way; inactive = no such curve, though single readings can be large or run the other way; the % refers to the signal ratio; note: potency is the fitted concentration of half-maximal effect); details: GR-bla HeLa, beta-lactamase FRET ratio, dexamethasone-stimulated, 18 h
[3] = qHTS assay to identify small molecule antagonists of the glucocorticoid receptor (GR) signaling pathway - cell viability counter screen (AID 720693); details: GR-bla HeLa viability, CellTiter-Glo luminescence, 18 h; with 5 nM dexamethasone present; note: potency is the fitted concentration of half-maximal effect; nearly all actives have a fitted effect of over 55% in size
Source text: National Center for Advancing Translational Sciences [NCATS]
NIH Chemical Genomics Center [NCGC]
U.S. Environmental Protection Agency [EPA]
National Institutes of Environmental Health Sciences [NIEHS]
National Toxicology Program [NTP]
U.S. Food and Drug Administration [FDA]
The Glucocorticoid receptor (GR) is one of the members of the nuclear receptor family of ligand-dependent transcription factors. GR plays a critical role in carbohydrate, protein and lipid metabolisms and programmed cell death. CellSensor GR-bla HeLa cell line (Invitrogen) contains a beta-lactamase reporter gene under the control of the glucocorticoid response element stably integrated into HeLa cells, a cervical cancer cell line that expresses glucocorticoid receptor. The activation of the reporter gene under culture conditions can be detected by fluorescence intensity. […]
The GR-bla HeLa cells were dispensed at 1500 cells/5 ul/well in 1536-well black wall/clear bottom plates using a Multidrop Combi (ThermoFisher Scientific, Waltham, MA) dispenser. […] After 1 uL of LiveBLAzerTM B/G FRET substrate was added using a Flying Reagent Dispenser (Aurora Discovery, San Diego, CA), the plates were incubated at room temperature (RT) for 2 hours, and fluorescence intensity was measured by an Envision plate reader (PerkinElmer, Shelton, CT). […] The luminescence was measured using a ViewLux (Perkin Elmer) plate reader.

[4] = qHTS assay for identifying genotoxic compounds that show differential cytotoxicity against isogenic chicken DT40 cell lines with known DNA damage response pathways - wild type cell line (AID 743012); details: DT40 wild type chicken cells viability, CellTiter-Glo, 40 h; note: potency is the fitted concentration of half-maximal effect; nearly all actives have a fitted effect of over 60% in size
Procedure, shortened: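 First, wild type DT40 cells were plated at 300 per well and equilibrated about 0.5 h at 37 C/5% CO2. Next, compounds in DMSO were added and exposure lasted 40 h. Finally, CellTiter-Glo was added for 30 min at room temperature and luminescence recorded.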

[5] = qHTS assay for identifying genotoxic compounds that show differential cytotoxicity against isogenic chicken DT40 cell lines with known DNA damage response pathways - Rev3 mutant cell line (AID 743014); details: chicken DT40 Rev3-/- viability, CellTiter-Glo, 40 h; note: potency is the fitted concentration of half-maximal effect; nearly all actives have a fitted effect of over 55% in size
[6] = biological target: Androgen receptor (Homo sapiens) (UniProt P10275); test: qHTS assay to identify small molecule antagonists of the androgen receptor (AR) signaling pathway (AID 743035; active = well fitted inhibition curve with a large enough effect in the signal ratio in the repeat runs, not every such curve was filed as active; inconclusive = weak or mixed curves, or effect the other way; inactive = no such curve, though single readings can be large or run the other way; the % refers to the signal ratio; note: potency is the fitted concentration of half-maximal effect); details: HEK293 AR-UAS-bla, R1881-stimulated, beta-lactamase FRET, 16 h
[7] = qHTS assay to identify small molecule antagonists of the androgen receptor (AR) signaling pathway using the MDA cell line - cell viability counter screen (AID 743041; note: % is set by controls: 0 for no effect and ±100 for the full control effect; nearly all actives have a fitted effect of over 45% in size); details: MDA-kb2 viability, CellTiter-Fluor, 16 h, cells co-treated with R1881 androgen agonist; viability change, negative = cytotoxic: at 70.3 µM (top of the series)
Procedure, shortened: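 Cells were plated at 3,000 per well and left 5 h. Compounds in DMSO were then pinned in, followed by R1881. After 16 h at 37C, CellTiter-Fluor fluorescence gave viability.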

[8] = biological target: Androgen receptor (Homo sapiens) (UniProt P10275); test: qHTS assay to identify small molecule antagonists of the androgen receptor (AR) signaling pathway using the MDA cell line (AID 743042; note: potency is the fitted concentration of half-maximal effect; nearly all actives have a fitted effect of over 55% in size); details: MDA-kb2 AR-luc, MMTV luciferase, R1881 antagonist, 16 h
[9] = qHTS assay to identify small molecule antagonists of the thyroid receptor (TR) signaling pathway - cell viability counter screen (AID 743064); details: GH3.TRE-Luc viability, CellTiter-Fluor, 24 h; note: potency is the fitted concentration of half-maximal effect; nearly all actives have a fitted effect of over 50% in size
Procedure, shortened: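 Viability of T3-stimulated (1 nM final) GH3.TRE-Luc cells is measured by CellTiter-Fluor fluorescence after 23.5 h compound exposure at 37 °C plus 30 min reagent incubation.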

[10] = qHTS assay to identify small molecule antagonists of the thyroid receptor (TR) signaling pathway (AID 743065); details: GH3.TRE-Luc, T3-stimulated luciferase inhibition, 23.5 h; note: potency is the fitted concentration of half-maximal effect; nearly all actives have a fitted effect of over 55% in size
Procedure, shortened: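 Antagonism measured as loss of luciferase signal in GH3 cells stably carrying a TRE-luciferase reporter, co-treated with compound and T3 (1 nM final) for 23.5 h at 37 C. Viability was read in the same well by CellTiter-Fluor.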

[11] = qHTS assay to identify small molecule antagonists of the estrogen receptor alpha (ER-alpha) signaling pathway - cell viability counter screen (AID 743074; calls by dose curve;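 note: HEK293 cells carrying ER-alpha-UAS-bla reporter stimulated with 17beta-estradiol; potency is the fitted concentration of half-maximal effect; nearly all actives have a fitted effect of over 45% in size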); details: ERalpha-bla HEK293 viability, CellTiter-Glo luminescence, 18 h
[12] = qHTS assay to identify small molecule antagonists of the estrogen receptor alpha (ER-alpha) signaling pathway using the BG1 cell line - cell viability counter screen (AID 743081); details: BG1Luc4E2 viability, CellTiter-Fluor, 22 h;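 note: compound given together with 17beta-estradiol as the ER stimulus; potency is the fitted concentration of half-maximal effect; nearly all actives have a fitted effect of over 45% in size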
[13] = qHTS assay to identify aromatase inhibitors - cell viability counter screen (AID 743084); details: MCF-7 aro ERE viability, CellTiter-Fluor, 24 h
[14] = biological target: Peroxisome proliferator-activated receptor gamma (Homo sapiens) (UniProt P37231); test: qHTS assay to identify small molecule agonists of the peroxisome proliferator-activated receptor gamma (PPARg) signaling pathway (AID 743094; active = well fitted activation curve with a large enough effect in the signal ratio in the repeat runs, not every such curve was filed as active; inconclusive = weak or mixed curves, or effect the other way; inactive = no such curve, though single readings can be large or run the other way; the % refers to the signal ratio; note: % is set by controls: 0 for no effect and ±100 for the full control effect); details: HEK293H PPARg-UAS-bla, beta-lactamase FRET ratio, 17 h; activation: at 57 µM (top of the series) unless noted
Procedure, shortened: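 Compounds dissolved in DMSO were added to PPARg UAS-bla HEK293H cells for 17 h at 37C, and reporter expression was quantified by fluorescence intensity after 1 h with LiveBLAzer B/G FRET substrate.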

[15] = qHTS assay to identify small molecule antagonists of the peroxisome proliferator-activated receptor gamma (PPARg) signaling pathway - cell viability counter screen (AID 743194); details: PPARg-bla HEK293H viability, CellTiter-Glo luminescence, 17 h, co-treated with 50 nM rosiglitazone; activity change, negative = cytotoxicity: at 81.1 µM (top of the series)
Procedure, shortened: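 Viability was measured as CellTiter-Glo luminescence in GeneBLAzer PPARg UAS-bla HEK293H cells. These cells had been exposed 17 h at 37 C to compounds together with rosiglitazone at 50 nM final, with the beta-lactamase readout taken in the same wells.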

[16] = qHTS assay for small molecule agonists of the antioxidant response element (ARE) signaling pathway (AID 743202; active = well fitted activation curve with a large enough effect in the signal ratio in the repeat runs, not every such curve was filed as active; inconclusive = weak or mixed curves, or effect the other way; inactive = no such curve, though single readings can be large or run the other way; the % refers to the signal ratio; note: potency is the fitted concentration of half-maximal effect); details: HepG2 ARE-bla reporter, beta-lactamase FRET, 16 h; activation: at 73.3 µM (top of the series)
Procedure, shortened: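 Quantitative high-throughput format in HepG2 cells bearing an integrated ARE-beta-lactamase reporter. Compound exposure lasted 16 h at 37 C, and fluorescence was read 2 h after adding LiveBLAzer B/G substrate at room temperature.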

[17] = qHTS assay for small molecule activators of the heat shock response signaling pathway - cell viability counter screen (AID 743209); details: HSE-bla HeLa viability, CellTiter-Glo luminescence, 5 h; note: potency is the fitted concentration of half-maximal effect; nearly all actives have a fitted effect of over 50% in size
Procedure, shortened: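 Readout: CellTiter-Glo luminescence, 30 min at room temperature. System: HSE-bla HeLa cells, 1500/well, plated overnight. Treatment: compounds in DMSO, 5 h at 37 C.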

[18] = qHTS assay to identify small molecule agonists of the peroxisome proliferator-activated receptor delta (PPARd) signaling pathway - cell viability counter screen (AID 743211); details: PPARd-bla HEK293H viability, CellTiter-Glo luminescence, 17 h
Procedure, shortened: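 Tox21 library compounds, delivered in DMSO, were incubated 17 h with PPARd-bla HEK293H cells; cytotoxicity was taken from CellTiter-Glo luminescence read 30 min after reagent addition.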

[19] = qHTS assay to identify small molecule antagonists of the peroxisome proliferator-activated receptor delta (PPARd) signaling pathway - cell viability counter screen (AID 743213); details: PPARd-bla HEK293H viability, CellTiter-Glo luminescence, 17 h; viability change, negative = cytotoxic: at 62 µM (top of the series); note: potency is the fitted concentration of half-maximal effect; nearly all actives have a fitted effect of over 50% in size
Procedure, shortened: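 PPARd-bla HEK293H cells (3000/well) got compound plus 300 nM L165041 agonist for 17 h at 37 C. Viability in the same wells came from CellTiter-Glo luminescence after 30 min at room temperature.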

[20] = biological target: Vitamin D3 receptor (Homo sapiens) (UniProt P11473); test: qHTS assay to identify small molecule agonists of the vitamin D receptor (VDR) signaling pathway (AID 743222; calls by dose curve; note: % is set by controls: 0 for no effect and ±100 for the full control effect); details: HEK293T VDR-UAS-bla, beta-lactamase FRET ratio, 16 h; activation: at 63.5 µM (top of the series)
Procedure, shortened: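 In VDR-bla cells, compound-induced beta-lactamase expression is quantified by FRET substrate fluorescence. Treatment lasts 16 h at 37C; substrate develops 2 h at room temperature.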

[21] = biological target: Vitamin D3 receptor (Homo sapiens) (UniProt P11473); test: qHTS assay to identify small molecule antagonists of the vitamin D receptor (VDR) signaling pathway (AID 743223; active = well fitted inhibition curve with a large enough effect in the signal ratio in the repeat runs, not every such curve was filed as active; inconclusive = weak or mixed curves, or effect the other way; inactive = no such curve, though single readings can be large or run the other way; the % refers to the signal ratio; note: potency is the fitted concentration of half-maximal effect); details: VDR-UAS-bla HEK293T, beta-lactamase FRET ratio, 16 h; activity change, negative = inhibition: at 78.8 µM (top of the series) unless noted
Procedure, shortened: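 Quantitative HTS in VDR-bla reporter cells stimulated with 1alpha,25-dihydroxyvitamin D3, 3 nM final. Compound exposure 16 h, 37C, 5% CO2. Read-out: beta-lactamase FRET substrate fluorescence, 2 h RT.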

[22] = qHTS assay to identify small molecule agonists of the vitamin D receptor (VDR) signaling pathway - cell viability counter screen (AID 743224); details: VDR-bla HEK293T viability, CellTiter-Glo luminescence, 16 h; note: potency is the fitted concentration of half-maximal effect; nearly all actives have a fitted effect of over 50% in size
Procedure, shortened: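 Plated VDR-bla cells (4 h, 37C) received compound, incubated 16 h, then LiveBLAzer substrate 2 h RT; CellTiter-Glo added afterwards, luminescence read at 30 min.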

[23] = qHTS assay to identify small molecule antagonists of the vitamin D receptor (VDR) signaling pathway - cell viability counter screen (AID 743225); details: VDR-bla HEK293T viability, CellTiter-Glo luminescence, 16 h
Procedure, shortened: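 Same-well multiplex: following 16 h treatment of HEK 293T cells carrying a UAS-driven beta-lactamase reporter with compound and agonist (3 nM final), and a 2 h FRET substrate step, CellTiter-Glo was added and luminescence read after 30 min.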

[24] = qHTS assay to identify small molecule agonists of the NFkB signaling pathway (AID 1159509; active = well fitted curve in the direction sought with a large enough effect in the signal ratio in the repeat runs, not every such curve was filed as active; inconclusive = weak or mixed curves, or a change in a side signal; inactive = no such curve, though single readings can be large or run the other way; the % refers to the signal ratio; note: potency is the fitted concentration of half-maximal effect); details: NFkB-bla ME-180 cells, beta-lactamase FRET ratio, 5 h
Procedure, shortened: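 ME-180 NFkB-bla, 2,000 cells/well, overnight plating; cpd pinned in DMSO, 5 h 37 C; B/G FRET substrate 1.5 h RT; ex 405, em 460/530 nm.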

[25] = qHTS assay to identify small molecule agonists of the endoplasmic reticulum stress response signaling pathway (AID 1159516; active = well fitted activation curve with a large enough effect in the signal ratio in the repeat runs, not every such curve was filed as active; inconclusive = weak or mixed curves, or effect the other way; the % refers to the signal ratio; note: % is set by controls: 0 for no effect and ±100 for the full control effect); details: ESRE-bla HeLa, ER stress beta-lactamase reporter, 5 h; activation: at 61 µM (top of the series)
Procedure, shortened: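 An ESRE-bla HeLa cell assay: compounds were pin-transferred from DMSO onto overnight-plated cells and left 5 hr at 37 C. Substrate was then loaded for 2 hr at room temperature before reading fluorescence at 460 nm and 530 nm.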

Cc1cccc([N+](=O)[O-])c1[N+](=O)[O-]
inconclusive: Potency [1] 57.7 µM | Potency [2] 20.7 µM | Potency [3] 41.2 µM | Potency [4] 32.5 µM | Potency [5] 14.5 µM | Potency [6] 26 µM | viability change, negative = cytotoxic [7] -31.4% | Potency [8] 0.456 µM | Potency [9] 0.273 µM | Potency [10] 51.4 µM | Potency [11] 3.27 µM | Potency [12] 0.273 µM | Potency [13] 36.4 µM | activation [14] 1.22% | Potency [15] 0.026 µM | Potency [16] 1.03 µM | Potency [17] 6.53 µM | Potency [18] 9.15 µM | Potency [19] 20.7 µM | activation [20] -26.5% | Potency [21] 0.0164 µM | Potency [22] 13 µM | Potency [23] 4.12 µM | Potency [24] 0.0033 µM | activation [25] -1.5%
